Assay results from patent publication US4990663A, “Process for preparing halogenated aromatic amines” (E. I. Du POnt de Nemours and Company, priority 1989, dated 1991).

Assay: dehalogenation inhibitor evaluation in laboratory batch hydrogenation
Experimental: The autoclave was sealed, the air was displaced with nitrogen and the autoclave was pressure tested. The nitrogen was replaced with hydrogen and the contents of the autoclave were heated to 75° C. The agitation was started and the pressure control regulator on the hydrogen feed was set to a maximum of 500 psig. […] The reduction was terminated. The autoclave was cooled, the hydrogen was displaced with nitrogen and the organic phase was separated.
Hydrogenation temperature was controlled at 110° C. instead of 96° C.

[1] = Example 10, 1.0 weight % inhibitor, otherwise as Example 8
[2] = Example 9, 0.375 weight % inhibitor, 110° C., 15.8 mg platinum

SMILES | reduction time [1] | residual nitroaromatic in product amine [1] | unreduced nitroaromatic (Example 8, 0.5 weight % inhibitor, 96° C., 7.9 mg platinum, terminated at 188 minutes) | nitroaromatic in product amine [2] | time at which hydrogen take-up essentially stopped [2] | hydrogen take-up / completeness of reduction (batch, 96° C., concentrations near optimum for semicontinuous unit)
COCCN [2-methoxyethylamine] | 148 min | 0.02% |  |  |  | 
NCCO [ethanolamine] |  |  | 8.8% | 0.38% | 100 min | hydrogen take-up was slow and erratic, and the reduction did not go to completion
